From US20080122428A1, “Optimized Determination of Voltage Changes Using a Voltage-Sensitive Dye” (Max-Planck-Gesellschaft zur Forderungder Wissenschaften e. …, priority 2003, published 2008)

Assays:
[1] = system: Retzius cells (leech neurons); test: Two-dimensional fluorescence spectra of excitation and emission in leech neurons at defined membrane voltages (voltage clamp); format: cell-based, Hirudo medicinalis; conditions: for effective displacement of an elementary charge along the membrane normal (ΔμEG/e0) cos θ / charge displacement ΔμEG cos θ along the membrane normal: ΔVM=100 mV, dM=4 nm; for charge displacement ΔμEG cos θ along the membrane normal: fit with seven parameters
Experimental: The voltage sensitivity of the anellated hemicyanines ANNINE-6 and ANNINE-5 and also of BNBIQ, di-4-ANEPBS and RH-421 was investigated. Two-dimensional fluorescence spectra of excitation and emission are measured in leech neurons at defined membrane voltages. The voltage induced changes of fluorescence are parametrized in terms of changes of spectral parameters. ANNINE dyes are far more voltage sensitive than the classical styryl dyes and their sensitivity can be assigned almost completely to an identical spectral shift of excitation and emission that is caused by a molecular Stark effect.
(§1) Neurons. Ganglia of the leech Hirudo medicinalis (Moser, Schorndorf, Germany) were dissected and pinned on a Sylgard coated dish in Leibowitz-15 medium (L-5520, Sigma, Deisenhofen) with 5 mg/ml glucose, 0.3 mg/ml glutamine and 3 μg/ml gentamycin sulfate (G-3632, Sigma). After opening the tissue capsules the ganglia were incubated in dispase/collagenase (Boehringer, Mannheim, 2 mg/ml L-15 medium) for 1 hour at room temperature. Retzius cells (soma diameter 60-90 μm) were dissociated by aspiration into a firepolished micropipette and washed with Leibowitz-15 medium. The cells were seeded on an uncoated glass cover slip in a silicone chamber (Flexiperm-mikro 12, Vivascience AG, Hannover, Germany) with Leibowitz-15 medium and 2.5% fetal bovine serum (10106, Gibco, Eggenstein) and kept for one or two days at 20° C.
(§2) Staining. The dyes were solubilized in Leibowitz-15 medium with sodium cholate (Sigma, St. Luise, USA). We used 4.3 mM RH-421 with 10 mM cholate, 4.3 mM di-4-ANEPBS with 10 mM cholate, 10 mM BNBIQ with 10 mM cholate, 1 mM ANNINE-5 with 23 mM cholate and 1 mM ANNINE-6 with 25 mM cholate. After centrifugation, the staining solutions were added to the culture chambers with the neurons at a volume ratio of 1:1000 30 min before patching. The solubility of the dyes in water decreases in the series RH-421, di4-ANEPBS, BNBIQ, ANNINE-5 and ANNINE-6. In correspondence, the fluorescence intensity of cells stained with RH-421 and di-4-ANEPBS dropped after exchanging the medium by a dye-free solution due to desorption from the cells, whereas the intensity with ANNINE-5 and ANNINE-6 remained constant for at least 1.5 h.
Electrophysiology. Patch pipettes with a tip diameter of 5-10 μm were made from micro haematocrite tubes (Assistent, Karl Hecht, Sondheim/Rhön, Germany) using an all-purpose puller (DMZ-Universal Puller, Zeitz-Instrumente, Augsburg, Germany). They were filled with 140 mM KCl, 1.5 mM MgCl2, 10 mM Hepes and 10 mM EGTA, pH 7.3. The resistance of the pipettes was around 0.4 MΩ. The pipettes with Ag/AgCl electrodes were connected to a single electrode patch-clamp amplifier (SEC-10L, npi, Tamm, Germany). The patching of Retzius cells lead to a seal resistance of about 500 MΩ. Whole cell contact was achieved by breaking the membrane by suction using a water-jet vacuum pump. The bath was held at ground potential with a Ag/AgCl electrode. We kept the cells at an intracellular voltage of VM=−40 mV. The fluorescence spectra were measured at a hyperpolarized voltage of VM=−70 mV and a depolarized voltage of about VM=10 mV.
Optical setup. The spectrometer is sketched in FIG. 2. It is built on the basis of an inverted microscope (Axiovert 35, Zeiss, Oberkochen, Germany) with a high numerical aperture oil immersion objective (Neofluar 100×/1.3 oil). The light of a 75 W Xenon short arc lamp (Ushio, Hyogo, Japan) is spectrally resolved (resolution 16 nm) by a grating monochromator (J&M, Aalen, Germany). It is fed into the microscope with an optical multimode fibre (diameter 1.2 mm) and collimating optics (J&M). Nerve cell are illuminated through a dichroic mirror (AHF Analysentechnik, Tübingen, Germany) with a splitting wavelength of 520 nm for RH-421, di-4-ANEPPS, BNBIQ and ANNINE-6 and of 460 nm for ANNINE-5. The illumination is controlled by a shutter and a field diaphragm. […]

[2] = system: HEK293 cells; test: Voltage sensitivity in HEK293 cells by extracellular electric field, laser line scans with one- or two-photon excitation; format: cell-based
Experimental: HEK293 cells (DSMZ GmbH, Braunschweig, Germany) were cultured using standard methods on glass coverslips (diameter 24 mm, Assistent, Glaswarenfabrik Karl Hecht KG, Sondheim, Germany). The coverslips were coated with fibronectin (No. 68885, Boehringer-Mannheim, Germany) in PBS (140 mM NaCl, 2.7 mM KCl, 1.5 mM KH2PO4, 6.5 mM Na2HPO4×2H2O) by incubation for 45 min in a 10 μg/ml fibronectin solution and a single subsequent wash with PBS. The cells were plated at densities of 15000 cells per coverslip and were used for up to three days after plating, while the cell density was still low. All measurements were done in a Ringer solution containing (in mM) 135 NaCl, 5.4 KCl, 1.0 MgCl2, 1.8 CaCl2 and 5.0 Hepes, adjusted to pH 7.2 with NaOH.
ANNINE-6 (FIG. 19a) was dissolved in a solution of 20% Pluronic F-127 DMSO (P-3000, Molecular Probes, Eugene, Oreg.) at a concentration of 0.5 mg/ml and sonicated for 15 min. The glass coverslip with the HEK293 cells was taken out of the culture well, exposed to the staining solution (dye stock solution diluted 1:100 into Ringer) for 5 min and finally washed with pure Ringer solution.
To change the voltage across the cell membrane we applied an extracellular electric field. This method (Gross et al., 1986) has a somewhat reduced voltage calibration accuracy but is much simpler than whole-cell recordings, for example, permitting the transfer of the recording chamber between microscope setups thereby allowing the exploration of a wider parameter range. Our custom-made chamber (FIG. 19b) consists of a 2.6 mm wide, and 30 mm long slit in a 0.5 mm thick PMMA (Plexiglas) plate. Two chlorided silver wires (diameter 0.127 mm, Cat. No. 7860, A-M Systems, INC., Everett, Wash.) for the application of the electrical field were fixed to the long edges of the channel with two-component epoxy resin glue (plus sofortfest, UHU, Bühl, Germany). This chamber was sealed on the bottom with a clean coverslip (24 mm×50 mm) attached with silicone grease (Bayer-silicone, Bayer AG, Leverkusen, Germany). The coverslip with the stained HEK293 cells was dried around the edges to get a watertight seal with silicone grease and then mounted cells down on the top side of the chamber. Two openings allowed the continuous perfusion (about 2 ml/min) with physiological saline using a gravity-fed perfusion system.
The voltage stimuli were generated by an arbitrary waveform generator (model 395, wavetek, Ismaning, Germany) and amplified by a custom-built push-pull circuit (using two operational amplifiers, OPA547, Texas Instruments Inc., Texas, USA, FIG. 19c). To avoid electrolysis at the electrodes and ionophoresis of cell-surface components all applied voltage waveforms were purely AC. Short pulses were used to minimize heating (FIG. 19d). The application of the pulse protocol was synchronized to the start of line scan acquisition.
For one-photon excitation we used laser scanning microscopes (Zeiss LSM 510 NLO and Leica TCS SP2) with Ar-ion laser excitation (458 nm, 488 nm, or 514 nm). We used laser illumination instead of, for example, Xe arc-lamps because narrow spectral width and high intensities are needed to obtain sufficient excitation of the dye at the spectral edge. The excitation light at the Zeiss microscope was coupled in via the main dichroic beam splitters (HFT 458/514, reflecting the 458 nm and 514 nm laser lines or HFT KP 700/488, a combined 700 nm short pass and 488 nm reflector). The emitted light was filtered by a long-pass filter (LP560). The Leica microscope uses an acousto-optical main beam splitter and fluorescence was collected in the range of 520 nm to 800 nm. The maximal excitation intensities at the sample were for the Zeiss (Leica) microscope: 1.3 mW (1.5 mW) at 514 nm, 200 μW (250 μW) at 488 nm and 28 μW (35 μW) at 458 nm. The pinhole was completely opened up (8.5 airy units) to collect as much light as possible. […]

[3] = system: Retzius cells (leech neurons); test: Fluorescence intensity of stained neurons after exchanging the medium by a dye-free solution (desorption); format: cell-based, Hirudo medicinalis; conditions: desorption from the cells
Experimental: as §1
as §2, with “After centrifugation, the staining solutions were added to the culture chambers with the neurons at a volume ratio of 1:1000 30 min before patching. The solubility of the dyes in water decreases in the series RH-421, di4-ANEPBS, BNBIQ, ANNINE-5 and ANNINE-6.” left out

SMILES | electrochromic shift of emission compared with excitation ([1]; neuron membrane, positive ΔVM) | effective displacement of an elementary charge along the membrane normal (ΔμEG/e0) cos θ [1] | charge displacement ΔμEG cos θ along the membrane normal [1] | number of photons to detect a voltage change ([2]; 458 nm, 1 mV) | number of photons to detect a voltage change ([2]; 458 nm, voltage change of 10 mV) | number of photons to detect a voltage change ([2]; 514 nm, 1 mV) | number of photons to detect a voltage change ([2]; 514 nm, 10 mV) | deviation of response from linearity (factor) ([2]; 514 nm, +180 mV) | deviation of response from linearity (factor) ([2]; 514 nm, −180 mV) | voltage resolution in single-trial measurements ([2]; one-photon, 1 ms temporal resolution) | rms resolution of individual voltage measurements ([2]; two-photon 1040 nm, 900 line scans) | fluorescence intensity of stained cells after exchanging the medium by a dye-free solution [3] | blue shift of emission relative to blue shift of excitation ([1]; neuron membrane, positive ΔVM)
CCCCN(CCCC)c1ccc2c(ccc3c2ccc2c4cc[n+](CCCCS(=O)(=O)[O-])cc4ccc23)c1 [ANNINE-5] | almost identical to those of excitation | 0.65 nm | 31 Debye | – | – | – | – | – | – | – | – | – | –
CCCCN(CCCC)c1ccc2c(ccc3c2ccc2c4ccc5c[n+](CCCCS(=O)(=O)[O-])ccc5c4ccc32)c1 [ANNINE-6] | almost identical to those of excitation | 0.81 nm | 39 Debye | 350 000 photons | 3500 photons | 82000 photons | 820 photons | about 0.66 | ~1.5 | about 12 mV rms | about 25 mV | – | –
CCCCCN(CCCCC)c1ccc(/C=C/C=C/c2cc[n+](CCCCS(=O)(=O)[O-])cc2)cc1 [RH-421, reference compound] | red shift of emission | 0.24 nm | 12 Debye | – | – | – | – | – | – | – | – | dropped | –
CCCCN(CCCC)c1ccc2cc(C=Cc3cc[n+](CCCCS(=O)(=O)[O-])cc3)ccc2c1 [di-4-ANEPBS, reference compound] | – | 0.43 nm | 21 Debye | – | – | – | – | – | – | – | – | dropped | about 50%
